Results are given in words; binding and its absence hold for the method and conditions named. In cells and extracts the contact can be indirect. Here binding means that the protein was enriched with, or labelled near, the bait; the list need not be complete. No binding means not detected with the bait.

The target of the experiment is T1, PEAK1^IDR1 (N-terminally truncated PEAK1, residues 1082-1746) (human) (UniProt Q9H792).
T1 sequence: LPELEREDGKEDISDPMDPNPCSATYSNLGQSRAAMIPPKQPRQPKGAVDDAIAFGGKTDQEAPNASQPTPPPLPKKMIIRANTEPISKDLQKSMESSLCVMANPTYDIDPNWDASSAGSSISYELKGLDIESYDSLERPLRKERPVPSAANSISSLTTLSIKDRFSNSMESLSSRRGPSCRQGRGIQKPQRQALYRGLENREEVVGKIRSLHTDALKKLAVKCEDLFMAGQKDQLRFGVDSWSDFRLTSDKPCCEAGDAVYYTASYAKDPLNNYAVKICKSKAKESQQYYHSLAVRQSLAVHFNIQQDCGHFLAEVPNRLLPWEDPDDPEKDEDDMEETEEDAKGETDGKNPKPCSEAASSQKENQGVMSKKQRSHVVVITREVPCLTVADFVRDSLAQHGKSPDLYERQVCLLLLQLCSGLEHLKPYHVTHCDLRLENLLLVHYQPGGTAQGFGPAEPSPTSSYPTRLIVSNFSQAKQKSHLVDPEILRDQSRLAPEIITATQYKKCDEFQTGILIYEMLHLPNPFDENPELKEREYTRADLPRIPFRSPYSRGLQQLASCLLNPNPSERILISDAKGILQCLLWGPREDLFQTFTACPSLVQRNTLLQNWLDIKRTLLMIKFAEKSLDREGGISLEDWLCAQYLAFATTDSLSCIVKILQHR
Put plainly: affinity purification with mass spectrometry + SEC.

For the substance “insect cell derived 14-3-3ε,ζ heterodimer (complex)”, the binding result is “no binding”.

For the origin of these results see paper doi:10.1101/2022.09.01.506260.
